Data as given in article PMC10353998 (2023).
These are yes or no findings as the source states them, for the method shown. In cells and extracts the contact can be indirect. Some entries that bind do so weakly or less than the wild type. Tags and fused reporters may be left off the sequences shown.

Legend:
[1] = target: T1, eGFP-GGSG-Flag-RBM20-R634Q (human) (UniProt Q5T481); test: co-IP; GFP-Trap magnetic particles, cytoplasmic fraction of HeLa expressing eGFP-RBM20 WT or mutants, 4 °C 3 h; washes with 150 mM NaCl, 0.1% NP-40; western blot for RBM20, TNPO3 and MOV10; no-bait control
T1 sequence: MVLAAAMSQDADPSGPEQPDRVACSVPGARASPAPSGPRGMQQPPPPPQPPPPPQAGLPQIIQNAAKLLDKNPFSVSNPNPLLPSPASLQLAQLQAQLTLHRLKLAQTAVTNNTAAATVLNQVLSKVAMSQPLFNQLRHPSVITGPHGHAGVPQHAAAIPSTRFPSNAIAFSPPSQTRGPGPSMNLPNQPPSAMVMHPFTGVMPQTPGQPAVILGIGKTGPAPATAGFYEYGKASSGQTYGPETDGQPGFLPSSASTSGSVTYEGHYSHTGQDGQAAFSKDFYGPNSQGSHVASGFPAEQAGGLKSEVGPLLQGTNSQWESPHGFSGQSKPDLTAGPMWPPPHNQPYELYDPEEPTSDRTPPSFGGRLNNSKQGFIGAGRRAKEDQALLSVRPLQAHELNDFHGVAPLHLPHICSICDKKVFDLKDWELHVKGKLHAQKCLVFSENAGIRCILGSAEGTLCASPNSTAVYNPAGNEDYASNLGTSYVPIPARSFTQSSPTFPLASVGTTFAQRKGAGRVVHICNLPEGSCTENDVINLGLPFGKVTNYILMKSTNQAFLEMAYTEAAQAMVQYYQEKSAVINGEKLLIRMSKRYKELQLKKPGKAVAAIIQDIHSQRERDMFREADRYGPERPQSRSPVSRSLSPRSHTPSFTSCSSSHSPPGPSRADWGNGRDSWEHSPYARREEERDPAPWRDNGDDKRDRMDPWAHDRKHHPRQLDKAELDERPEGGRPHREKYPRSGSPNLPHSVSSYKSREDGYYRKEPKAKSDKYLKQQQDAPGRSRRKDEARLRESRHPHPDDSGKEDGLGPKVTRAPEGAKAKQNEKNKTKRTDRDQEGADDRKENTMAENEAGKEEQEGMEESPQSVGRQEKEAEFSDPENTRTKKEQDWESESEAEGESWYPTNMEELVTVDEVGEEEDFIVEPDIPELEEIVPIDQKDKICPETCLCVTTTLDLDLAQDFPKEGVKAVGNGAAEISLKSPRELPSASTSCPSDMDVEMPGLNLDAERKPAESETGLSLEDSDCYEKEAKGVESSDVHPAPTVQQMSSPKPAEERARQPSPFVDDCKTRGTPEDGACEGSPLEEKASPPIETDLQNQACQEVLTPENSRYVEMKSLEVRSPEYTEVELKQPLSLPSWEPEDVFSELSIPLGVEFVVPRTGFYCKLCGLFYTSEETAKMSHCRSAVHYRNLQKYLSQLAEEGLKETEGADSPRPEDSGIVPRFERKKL

[2] = target: T2, eGFP-GGSG-Flag-RBM20-P633L (human) (UniProt Q5T481); test: as above
T2 sequence: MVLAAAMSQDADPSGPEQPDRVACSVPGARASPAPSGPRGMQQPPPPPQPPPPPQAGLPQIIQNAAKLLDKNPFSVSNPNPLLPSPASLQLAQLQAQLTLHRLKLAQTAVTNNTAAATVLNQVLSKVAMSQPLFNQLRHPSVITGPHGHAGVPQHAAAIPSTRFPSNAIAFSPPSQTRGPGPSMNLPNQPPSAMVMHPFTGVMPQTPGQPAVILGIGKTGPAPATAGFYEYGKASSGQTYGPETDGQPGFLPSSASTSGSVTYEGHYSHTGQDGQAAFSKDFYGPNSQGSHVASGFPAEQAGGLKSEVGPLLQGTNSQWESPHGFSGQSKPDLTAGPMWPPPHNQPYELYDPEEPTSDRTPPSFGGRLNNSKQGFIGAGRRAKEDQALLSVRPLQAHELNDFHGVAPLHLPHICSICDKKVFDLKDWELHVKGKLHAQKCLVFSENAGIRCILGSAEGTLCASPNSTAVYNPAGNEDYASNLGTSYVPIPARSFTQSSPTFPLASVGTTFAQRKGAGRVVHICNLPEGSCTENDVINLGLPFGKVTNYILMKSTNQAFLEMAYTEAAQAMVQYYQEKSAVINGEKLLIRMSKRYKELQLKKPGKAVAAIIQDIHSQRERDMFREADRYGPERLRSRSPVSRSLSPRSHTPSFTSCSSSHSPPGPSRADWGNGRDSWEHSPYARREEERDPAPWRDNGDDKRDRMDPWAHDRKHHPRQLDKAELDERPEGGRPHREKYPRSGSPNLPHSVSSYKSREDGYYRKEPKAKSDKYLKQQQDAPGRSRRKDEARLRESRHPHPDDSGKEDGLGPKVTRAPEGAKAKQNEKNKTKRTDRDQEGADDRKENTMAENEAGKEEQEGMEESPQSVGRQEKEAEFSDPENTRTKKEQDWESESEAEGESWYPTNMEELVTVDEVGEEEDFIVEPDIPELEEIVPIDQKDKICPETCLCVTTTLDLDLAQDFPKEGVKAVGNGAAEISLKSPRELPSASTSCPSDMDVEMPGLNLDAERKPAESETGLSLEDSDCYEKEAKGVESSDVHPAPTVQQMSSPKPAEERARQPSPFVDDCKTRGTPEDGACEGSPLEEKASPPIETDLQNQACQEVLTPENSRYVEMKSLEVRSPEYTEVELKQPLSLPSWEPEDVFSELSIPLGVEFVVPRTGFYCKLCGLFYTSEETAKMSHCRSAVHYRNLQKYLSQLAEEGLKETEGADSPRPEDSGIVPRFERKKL

B1: MOV10 (protein, UniProt Q9HCE1 1-1003)
chain: MPSKFSCRQLREAGQCFESFLVVRGLDMETDRERLRTIYNRDFKISFGTPAPGFSSMLYGMKIANLAYVTKTRVRFFRLDRWADVRFPEKRRMKLGSDISKHHKSLLAKIFYDRAEYLHGKHGVDVEVQGPHEARDGQLLIRLDLNRKEVLTLRLRNGGTQSVTLTHLFPLCRTPQFAFYNEDQELPCPLGPGECYELHVHCKTSFVGYFPATVLWELLGPGESGSEGAGTFYIARFLAAVAHSPLAAQLKPMTPFKRTRITGNPVVTNRIEEGERPDRAKGYDLELSMALGTYYPPPRLRQLLPMLLQGTSIFTAPKEIAEIKAQLETALKWRNYEVKLRLLLHLEELQMEHDIRHYDLESVPMTWDPVDQNPRLLTLEVPGVTESRPSVLRGDHLFALLSSETHQEDPITYKGFVHKVELDRVKLSFSMSLLSRFVDGLTFKVNFTFNRQPLRVQHRALELTGRWLLWPMLFPVAPRDVPLLPSDVKLKLYDRSLESNPEQLQAMRHIVTGTTRPAPYIIFGPPGTGKTVTLVEAIKQVVKHLPKAHILACAPSNSGADLLCQRLRVHLPSSIYRLLAPSRDIRMVPEDIKPCCNWDAKKGEYVFPAKKKLQEYRVLITTLITAGRLVSAQFPIDHFTHIFIDEAGHCMEPESLVAIAGLMEVKETGDPGGQLVLAGDPRQLGPVLRSPLTQKHGLGYSLLERLLTYNSLYKKGPDGYDPQFITKLLRNYRSHPTILDIPNQLYYEGELQACADVVDRERFCRWAGLPRQGFPIIFHGVMGKDEREGNSPSFFNPEEAATVTSYLKLLLAPSSKKGKARLSPRSVGVISPYRKQVEKIRYCITKLDRELRGLDDIKDLKVGSVEEFQGQERSVILISTVRSSQSFVQLDLDFNLGFLKNPKRFNVAVTRAKALLIIVGNPLLLGHDPDWKVFLEFCKENGGYTGCPFPAKLDLQQGQNLLQGLSKLSPSTSGPHSHDYLPQEREGEGGLSLQVEPEWRNEL
binding [1]: binds
binding [2]: binds
